One substance from article PMC11497446 can be followed below.

By UniProt entry, the sequences of proteins in these tests, tags left out. Residues count along the entry.
UniProt P12830, residues 731-882: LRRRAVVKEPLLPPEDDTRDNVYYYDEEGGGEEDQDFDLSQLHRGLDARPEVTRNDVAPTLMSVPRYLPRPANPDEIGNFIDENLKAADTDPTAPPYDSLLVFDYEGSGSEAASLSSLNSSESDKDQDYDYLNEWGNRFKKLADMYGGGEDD
UniProt P51784: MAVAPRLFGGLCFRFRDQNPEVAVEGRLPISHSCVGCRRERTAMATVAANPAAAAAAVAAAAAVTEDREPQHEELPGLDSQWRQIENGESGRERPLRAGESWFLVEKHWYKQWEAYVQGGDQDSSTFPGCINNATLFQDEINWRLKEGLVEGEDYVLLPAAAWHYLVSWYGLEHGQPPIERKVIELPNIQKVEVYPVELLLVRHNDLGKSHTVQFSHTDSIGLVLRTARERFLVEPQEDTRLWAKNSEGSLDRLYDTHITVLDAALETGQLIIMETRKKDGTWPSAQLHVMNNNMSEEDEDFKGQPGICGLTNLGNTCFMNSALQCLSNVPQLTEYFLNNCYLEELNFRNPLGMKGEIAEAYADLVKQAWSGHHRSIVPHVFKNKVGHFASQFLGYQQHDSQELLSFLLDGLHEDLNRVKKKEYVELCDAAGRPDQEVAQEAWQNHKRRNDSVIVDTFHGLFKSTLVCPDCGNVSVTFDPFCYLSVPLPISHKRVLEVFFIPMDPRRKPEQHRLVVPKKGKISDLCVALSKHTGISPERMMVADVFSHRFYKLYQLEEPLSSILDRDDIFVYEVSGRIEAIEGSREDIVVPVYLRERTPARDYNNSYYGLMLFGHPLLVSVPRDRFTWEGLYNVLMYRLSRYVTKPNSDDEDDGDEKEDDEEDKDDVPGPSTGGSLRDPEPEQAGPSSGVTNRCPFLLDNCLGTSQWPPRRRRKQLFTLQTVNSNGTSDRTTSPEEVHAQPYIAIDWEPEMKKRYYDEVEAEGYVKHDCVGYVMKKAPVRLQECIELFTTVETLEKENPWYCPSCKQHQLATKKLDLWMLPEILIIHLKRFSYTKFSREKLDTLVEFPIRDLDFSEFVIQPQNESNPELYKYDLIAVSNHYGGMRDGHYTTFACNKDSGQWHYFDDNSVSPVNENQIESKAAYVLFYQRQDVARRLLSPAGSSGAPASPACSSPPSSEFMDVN

The assay addresses Flag-E-cadherin-C (731-882aa) (human) (UniProt P12830). Nature of the assay: co-IP; co-immunoprecipitation of USP11 and E-cadherin-C (731-882aa); cells and antibody not given.

Results are given in words; binding and its absence hold for the method and conditions named. Binding seen in cells or lysates may run through a third protein. Some results given as binding are weak or reduced against the parent protein; the word gives no strength.

As for “USP11 in the co-immunoprecipitation with E-cadherin-C (from UniProt P51784 1-963) (enzyme)”, the binding result is “binds”.
